Two molecules from paper PMC8698616 can be followed below.

These are yes or no findings as the source states them, for the method shown. Binding seen in cells or lysates may run through a third protein. Some binding calls cover weakened binding; strength is not graded here.

Assay [1] deals with T1, LEA29 (Arabidopsis thaliana (Col-0)), Q9LW12.
T1 chain: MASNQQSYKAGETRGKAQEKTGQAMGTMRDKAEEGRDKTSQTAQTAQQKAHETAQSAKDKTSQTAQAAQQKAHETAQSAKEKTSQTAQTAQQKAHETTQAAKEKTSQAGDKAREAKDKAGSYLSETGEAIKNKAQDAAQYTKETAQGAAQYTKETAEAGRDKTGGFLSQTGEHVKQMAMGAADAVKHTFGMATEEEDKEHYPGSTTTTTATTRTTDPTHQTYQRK
The experiment in a line: split reporter; 2in1 ratiometric BiFC (rBiFC, vector pBiFCt-2in1-CC) in N. benthamiana leaves, 4 d after Agrobacterium infiltration with p19; confocal microscopy; relative YFP/RFP fluorescence ratio with cut-off above 80% (n = 15-25); LEA gene at the attR1-R4 site alone as negative control. Particulars: remark: other sources report otherwise.

Assay [2] addresses T2, LEA7 (Arabidopsis thaliana (Col-0)) (UniProt Q96270).
T2 sequence: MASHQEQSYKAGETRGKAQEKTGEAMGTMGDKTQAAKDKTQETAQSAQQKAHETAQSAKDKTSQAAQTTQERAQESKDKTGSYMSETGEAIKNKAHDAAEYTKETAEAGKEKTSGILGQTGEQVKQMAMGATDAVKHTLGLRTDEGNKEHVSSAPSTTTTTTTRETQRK
The assay is described as above.

B1: LEA29, Q9LW12 1-225 (protein)
chain: T1 chain
Take B1: the binding entry in assay [1] is recorded as “binds”.

B2: LEA29 (protein, UniProt Q9LW12 1-225)
chain: T1 chain
Consider B2, for which the binding result in assay [2] was “binds”.
